Structures can show the parent of a compound that is named as a salt. The list shows a part of the results. Repeats in this data set agree poorly, so a single value says little.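 The human kidney-derived cells carry a stably integrated construct of eight TEAD-binding elements driving luciferase, read by luminescence in a drug-repurposing library screen. A compound counts as a hit when its signal is more than five robust Z scores above the plate mean.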
System: HEK293A TEAD-LUC reporter
Assay: TEAD-luciferase reporter activity (YAP activation), robust Z score vs plate; higher = stronger YAP/TEAD activation
Conditions: 24 h

Row | Compound | TEAD-luciferase reporter activity (compound concentration: 200 nM) | TEAD-luciferase reporter activity (compound concentration: 2 uM) | TEAD-luciferase reporter activity (compound concentration: 10 uM)
1 | C[C@@H]1CN(c2c(F)cc3c(=O)c(C(=O)O)cn(C4COC4)c3c2Cl)C[C@@H]1N | inactive: -0.387 | inactive: -1.52 | inactive: -0.435
2 | O=S(=O)(O)c1cc2c(O)c(c1)Cc1cc(S(=O)(=O)O)cc(c1O)Cc1cc(S(=O)(=O)O)cc(c1O)Cc1cc(S(=O)(=O)O)cc(c1O)Cc1cc(S(=O)(=O)O)cc(c1O)Cc1cc(S(=O)(=O)O)cc(c1O)C2 | inactive: 0.0944 | inactive: 0.305 | inactive: -1.73
3 | CN(C)C(=O)NC1CC2(CCN(C(=O)c3c[nH]c4ccccc34)CC2)Oc2ccccc21 (stereo not given) | inactive: -1.53 | – | inactive: -1.28
4 | CNCCCOc1cc(F)c(-c2c(Cl)nc3ncnn3c2N[C@@H](C)C(F)(F)F)c(F)c1 [cevipabulin fumarate] | inactive: 0.0105 | inactive: 3.87 | inactive: 3.79
5 | CNCCCOc1cc(F)c(-c2c(Cl)nc3ncnn3c2N[C@@H](C)C(F)(F)F)c(F)c1 | – | inactive: 1.33 | –
6 | C[C@@H]1CN(c2c(F)c(F)c3c(=O)c(C(=O)O)cn(C4CC4)c3c2F)C[C@H](C)N1 [Orbifloxacin] | inactive: -0.599 | inactive: 1.35 | inactive: -0.0616
7 | Cc1ccc(N2CCN(C)CC2)c2c1CC[C@@H](NC(=O)c1ccc(N3CCOCC3)cc1)C2 | inactive: -0.0776 | inactive: -0.855 | inactive: -0.456
8 | O=C(O)c1cn(-c2ccc(F)cc2)c2cc(N3CCNCC3)c(F)cc2c1=O [Sarafloxacin hydrochloride] | inactive: -0.329 | inactive: -1.04 | inactive: 4.81
9 | c1cc(-c2nc3c4c(ncc3[nH]2)CCOC4)no1 | inactive: 1.2 | inactive: 0.185 | inactive: -0.917
10 | Cn1cnc2c1c(=O)n(CCCN1CCC(C(=O)c3ccccc3)CC1)c(=O)n2C | inactive: -1.76 | inactive: -1.18 | inactive: 3.72
11 | OC[C@H]1O[C@@H](n2cnc3c(NCC(c4ccccc4)c4ccccc4)ncnc32)[C@H](O)[C@@H]1O | inactive: 0.918 | inactive: 0.138 | inactive: 3.59
12 | C[C@@H]1COC(Nc2ccc3ncnc(Nc4ccc(OCc5nccs5)c(Cl)c4)c3c2)=N1 [varlitinib] | inactive: -1.42 | inactive: 3.68 | inactive: -0.384
13 | O=C(O)Cc1ccc(COc2cccc(-c3c(Cc4ccccc4)cnc4c(C(F)(F)F)cccc34)c2)cc1 | inactive: 0.0339 | inactive: -0.215 | inactive: -0.792
14 | OCC(CO)n1cnc(-c2ccc(F)cc2)c1-c1ccnc(Oc2ccccc2)n1 | inactive: -0.839 | inactive: -1.24 | inactive: -1.55
15 | Nc1nc(N)c2ncn(C3COC(CO)O3)c2n1 (stereo not given) [Amdoxovir] | inactive: -1.03 | inactive: -0.879 | inactive: 1.51
16 | CC1=C(CC(=O)O)c2cc(F)ccc2/C1=C/c1ccc(S(C)=O)cc1 (stereo not given) | inactive: -0.2 | inactive: 0.0963 | inactive: -0.265
17 | Cn1c(C#N)ccc1-c1cc(F)c2c(c1)C(C)(C)C(=O)N2 | inactive: -0.105 | inactive: 0.641 | inactive: -0.441
18 | CC(C)N(CCO/N=C1\CCCCC\C1=C\c1ccccc1)C(C)C [stirocainide] | inactive: 0.384 | inactive: 0.447 | inactive: 2.3
19 | COc1ccc([C@]2(C#N)CC[C@@H](C(=O)O)CC2)cc1OC1CCCC1 [cilomilast] | inactive: -2.11 | inactive: -0.815 | inactive: -0.872
20 | O=C(O)c1cccnc1Nc1cccc(C(F)(F)F)c1 | inactive: -1.07 | inactive: -1.41 | inactive: 1.27
21 | CC(C)C(NC(=O)Cn1c(-c2ccccc2)ncc(N)c1=O)C(=O)c1nnc(C(C)(C)C)o1 (stereo not given) [Freselestat] | inactive: -0.367 | inactive: -0.262 | inactive: -1.06
22 | Cc1cc(C)cc(NC(=O)Cc2ccc(OC(C)(C)C(=O)[O-])cc2)c1 [Efaproxiral (sodium)] | inactive: -1.64 | inactive: -1.08 | inactive: 0.14
23 | CCC[C@H](NC(=O)[C@@H]1C[C@@H](Oc2cc(-n3cccn3)nc3cc(OC)ccc23)CN1C(=O)[C@@H](NC(=O)NC(C)(C)C)C(C)(C)C)C(=O)C(=O)NC1CC1 | inactive: 0.206 | inactive: -0.0827 | inactive: 1.1
24 | COc1ccc(C(=O)N2CCC3(CC2)Cc2ccccc2NC3=O)cc1 | inactive: -1.02 | – | inactive: 1.83
25 | CC(C)C[C@H](NC(=O)[C@H](CC(N)=O)NC(=O)[C@H](CCC(=O)O)NC(=O)CNC(=O)[C@@H]1CCCN1C(=O)[C@H](CCC(N)=O)NC(=O)[C@H](Cc1ccc(O)cc1)NC(=O)[C@H](CCC(N)=O)NC(=O)[C@@H]1CCCN1C(=O)[C@H](CCC(=O)O)NC(=O)[C@@H](NC(=O)[C@H](CO)NC(=O)[C@@H](N)[C@@H](C)O)[C@@H](C)O)C(=O)O [Tsumura-zokumeito] | inactive: 0.282 | inactive: -0.395 | inactive: -0.636

Row | Compound | TEAD-luciferase reporter activity (compound concentration: 200 nM) | TEAD-luciferase reporter activity (compound concentration: 2 uM) | TEAD-luciferase reporter activity (compound concentration: 10 uM)
26 | CNC1(C)C2CCC(C2)C1(C)C (stereo not given) | inactive: -0.601 | – | inactive: 0.503
27 | CNC1(C)C2CCC(C2)C1(C)C (stereo not given) [mecamylamine HCl] | – | inactive: 0.546 | –
28 | C=CC[N+]1([C@H]2C[C@H]3[C@@H]4CC[C@H]5C[C@H](OC(C)=O)[C@@H](N6CCC7(CC6)OCCO7)C[C@]5(C)[C@H]4CC[C@]3(C)[C@H]2OC(C)=O)CCCC1 | inactive: -1.3 | inactive: -0.621 | inactive: -0.54
29 | CC(C)OC(=O)c1cn(Cc2c(F)cccc2F)c2sc(-c3ccc(NC(=O)C(C)C)cc3)c(CN(C)Cc3ccccc3)c2c1=O | inactive: -0.716 | inactive: -0.372 | inactive: 4.85
30 | CC[C@@H]1C(=O)N(C)c2cnc(Nc3ccc(C(=O)N[C@H]4CC[C@H](N5CCN(CC6CC6)CC5)CC4)cc3OC)nc2N1C(C)C [Volasertib] | inactive: -1.26 | active: 6.14 | inactive: 0.942
31 | Nc1ncn(C2C[C@H](O)[C@@H](CO)O2)c(=O)n1 (stereo not given in full) [Decitabine] | inactive: 1.79 | inactive: 0.412 | active: 7.38
32 | Fc1ccccc1-c1nc2ccn(Cc3ccc(-c4ccc(C(F)(F)F)cc4C(F)(F)F)nn3)cc-2n1 [tegobuvir] | inactive: -2.7 | inactive: 0.151 | inactive: -0.135
33 | Nc1nc(N)nc(-c2cc(Cl)ccc2Cl)n1 [irsogladine] | – | inactive: -2.46 | –
34 | Nc1nc(N)nc(-c2cc(Cl)ccc2Cl)n1 | inactive: -1.51 | – | inactive: 0.715
35 | CC(C)n1c(=O)cc(N[C@@H](C)c2ccccc2)[nH]c1=O [Mavacamten] | inactive: -1.17 | inactive: 0.991 | inactive: 0.117
36 | Cc1ccc2c(nc(C)n2CCCCC2(C(=O)NCC(F)(F)F)c3ccccc3-c3ccccc32)c1NC(=O)c1ccccc1-c1ccc(C(F)(F)F)cc1 | inactive: -1.36 | inactive: -1.55 | inactive: 1.42
37 | COc1cc(C[C@@H](CO)[C@H](CO)Cc2ccc(O)c(OC)c2)ccc1O [(-)-Secoisolariciresinol] | – | inactive: 0.0193 | –
38 | COc1cc(C[C@@H](CO)[C@H](CO)Cc2ccc(O)c(OC)c2)ccc1O | inactive: -0.226 | – | inactive: -1.53
39 | CCC(=O)N1CCN(c2cc3c(cc2F)c(=O)c(C(=O)O)cn3CC)CC1 | inactive: -1.21 | inactive: -1.1 | inactive: 4.73
40 | O=C(C1CCN(c2nc3ncccc3o2)CC1)N1CCN(c2ncccn2)CC1 | inactive: 0.1 | – | inactive: -0.693
41 | COC(=O)[C@@H]1CC(=O)C[C@H]1C(=O)OC | inactive: 0.0953 | inactive: 0.497 | inactive: 0.941
42 | CCCCC(=O)N(Cc1ccc(-c2ccccc2-c2nnn[nH]2)cc1)[C@H](C(=O)O)C(C)C.CCOC(=O)[C@H](C)C[C@@H](Cc1ccc(-c2ccccc2)cc1)NC(=O)CCC(=O)O | inactive: -1.18 | inactive: -1.92 | inactive: -0.295
43 | CN(Cc1ccccc1F)C1CCc2ccccc21 (stereo not given) | inactive: 3.32 | – | inactive: 0.671
44 | OCC(CO)NC1CC(O)(CO)C(O)C(O)C1O (stereo not given) [voglibose] | inactive: -0.275 | inactive: 0.405 | inactive: 2.58
45 | CCC(C)OC(=O)Cc1oc2ccccc2c1C(=O)c1cc(I)c(OCCN(CC)CC)c(I)c1 (stereo not given) | inactive: 0.346 | inactive: 1.37 | inactive: 0.257
46 | COn1cc(C(=O)O)c(=O)c2cc3c(cc21)OCO3 [Miloxacin] | inactive: -0.947 | inactive: 2.22 | inactive: 0.166
47 | COc1ccc2c(O[C@H]3CC4C(=O)N(C)CCCC/C=C\[C@@H]5C[C@@]5(C(=O)NS(=O)(=O)C5CC5)NC(=O)[C@@H]4C3)cc(-c3nc(C(C)C)cs3)nc2c1C (stereo not given in full) [Simeprevir] | inactive: -0.00135 | inactive: 1.52 | inactive: -0.5
48 | CCc1ccc2c(c1)N(CC(C)CN(C)C)c1ccccc1S2 (stereo not given) [Ethylisobutrazine Hydrochloride] | inactive: -0.833 | inactive: 1.94 | inactive: -0.0694
49 | COc1cc2nc(N3CCN(C(=O)C4CC5C=CC4CC5)CC3)nc(N)c2cc1OC (stereo not given) | inactive: 1.95 | inactive: 1 | inactive: -1.46
50 | N[C@@H](Cc1ccccn1)c1ccccc1 [Lanicemine hydrochloride] | inactive: -0.941 | inactive: -1.27 | inactive: -0.124

Fetched one by one from above (3):
Row | Compound | TEAD-luciferase reporter activity (compound concentration: 200 nM) | TEAD-luciferase reporter activity (compound concentration: 2 uM) | TEAD-luciferase reporter activity (compound concentration: 10 uM)
28 | C=CC[N+]1([C@H]2C[C@H]3[C@@H]4CC[C@H]5C[C@H](OC(C)=O)[C@@H](N6CCC7(CC6)OCCO7)C[C@]5(C)[C@H]4CC[C@]3(C)[C@H]2OC(C)=O)CCCC1 | inactive: -1.3 | inactive: -0.621 | inactive: -0.54
27 | CNC1(C)C2CCC(C2)C1(C)C (stereo not given) [mecamylamine HCl] | – | inactive: 0.546 | –
31 | Nc1ncn(C2C[C@H](O)[C@@H](CO)O2)c(=O)n1 (stereo not given in full) [Decitabine] | inactive: 1.79 | inactive: 0.412 | active: 7.38

— the supplement of paper PMC10735217
